## Results of single-concentration screens

The values are deposited in ChEMBL (CHEMBL3988442, “University of Dundee, Small-Polar-MMV Screening Library” (2021)).

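Whole-parasite assay of Trypanosoma brucei over 72 hours; the read-out is not stated. Compounds at 30 µM. Direction is inferred from retests: higher values go with stronger inhibition. Values scatter widely below zero; nearly all retest evidence comes from the higher of the two concentrations used. Of about 64,000 compounds tested this way, about 940 (1.5%) reached 50% or more in at least one test.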

Values are the deposited “Percent Effect”, in %.
The controls that fix the scale are not given in the record; negative values are as filed.
Compounds were drawn at random from those tested, without regard to their results.

For CC(C)OCCC(=O)Nc1c(-c2ccc(F)cc2)ncn1C the result was -21.94%.
For CCOc1ccc(CN(CC)C(=O)c2ccc(C)[nH]c2=O)cc1OC the result was 8.822%.
For O=C(NCC1CC1)c1c2c(N3CCCC3)ncnc2n2ccccc12 the result was -9.926%.
For O=C(c1ccc(COc2ccc(Cl)cc2)o1)N1N=CCC1(O)C(F)(F)F (stereo not drawn) the result was 99.58%.
For CN(CCc1cccs1)C1CCCN(Cc2noc(C3CC3)n2)C1 (stereo not drawn) the result was -25.44%.
For Cc1noc(C)c1-c1ccc(C2CCCN2C(=O)c2cccnn2)nc1 (stereo not drawn) the result was -10.02%.
For O=C(c1ccc(Br)cc1F)N1CCc2ccncc21 the result was -35.8%.
For CCN(CC)C(=O)c1ccn(COc2cc(C)cc(C)c2)n1 the result was 21.24%.
For COc1ccccc1CN1CCCC(n2cccn2)C1 (stereo not drawn) the result was -58.78%.
For CC1CN(C)c2ccccc2N(C(=O)c2ccc(=O)n(C)c2)C1 (stereo not drawn) the result was -20.86%.
For Cc1ccccc1SCC(=O)N[C@H]1CC[C@H](n2cnnc2)CC1 the result was -18.25%.
For Cc1n[nH]c(C2CN(C(=O)c3csnn3)CCO2)n1 (stereo not drawn) the result was 19.18%.
For CCOCC1CN(S(=O)(=O)N(C)C)Cc2cnn(CC)c21.O=C(O)C(F)(F)F (stereo not drawn) the result was -21.09%.
For CC(C)OCCCN(Cc1ccncc1)Cc1cccc(F)c1.Cl the result was -29.62%.
For O=C(O)C(F)(F)F.O=C(O)C(F)(F)F.O=C1CC2(CCN(Cc3cccnc3)C2)CN1c1cncnc1 (stereo not drawn) the result was -23.55%.
For CCc1noc(C(C)N2CCC(N3CCCCC3)CC2)n1 (stereo not drawn) the result was 13.14%.
For COC(=O)N1CCC(Nc2cccc(F)c2C#N)CC1 the result was -7.919%.
For [H][C@@]12CS(=O)(=O)C[C@]1([H])N(C(=O)Cc1ccc(F)c(C)c1)CCN2CC(C)C the result was -19.48%.
For Cc1nocc1C(=O)N1CCCC2(CCN(c3ccsc3)C2=O)C1 (stereo not drawn) the result was -104.6%.
For OCCC1(NCc2ccc(-n3cccn3)cc2)CCOCC1 the result was 9.165%.
For N#Cc1ccc(C(=O)O)nc1/C=C/c1cccc(F)c1 the result was -0.9928%.
For O=C1CCC(C(=O)Nc2ccc(=O)n(Cc3ccccc3Cl)c2)N1 (stereo not drawn) the result was -20.72%.
For Cc1nnc(N2CCOC(CN(C)C)C2)c(C#N)c1C (stereo not drawn) the result was 9.818%.
For Cn1ncc(NC(=O)c2noc3c2CCCC3)c1C(N)=O the result was -19.19%.
For O=C(CCCn1cncn1)NC1(c2ccc(Cl)cc2)CCC1 the result was -26.23%.
For c1csc(CNCC2COCc3c(-c4ccsc4)nnn3C2)n1 (stereo not drawn) the result was -40.28%.
For CC1CN(C)CCN1C(=O)c1cccn1Cc1ccncc1 (stereo not drawn) the result was -53.84%.
For CC1CCN(S(=O)(=O)NCc2ccccc2Cn2cncn2)CC1 the result was -4.59%.
For CC(C)N1CCCC2(CCN(C(=O)COCC(F)(F)C(F)F)C2)C1=O (stereo not drawn) the result was -17.62%.
For CCC(NC(=O)c1cccc2[nH]ccc12)C(=O)N1CCOCC1 (stereo not drawn) the result was -28.06%.
For CN(C)C(=O)COCc1nnc2n1CCN(Cc1ccsc1)C2.O=C(O)C(F)(F)F the result was -35.49%.
For Cc1ccc(-c2nnc(CNCCn3cc(C)cn3)o2)cc1 the result was 6.892%.
For CCCC(=O)N1CCCCC1c1nc(N(C)C)ncc1-c1cc(C)no1 (stereo not drawn) the result was 6.265%.
For Cc1oc(C(=O)Nc2ccccc2F)cc1S(N)(=O)=O the result was -38.25%.